In patent publication US11034980B2, “Microbial engineering for the production of isoprenoids” (Massachusetts Institute of Technology, priority 2018, dated 2021):
At least one read-out could not be matched to a standard name with certainty.

Target: T1, choline kinase from Saccharomyces cerevisiae (ScCK) (Saccharomyces cerevisiae, UniProt P20485)
T1 construct: S. cerevisiae (AAA34499.1), codon optimized; made in house; host or cells: E. coli BL21 (DE3)
T1 sequence (P20485 1-582): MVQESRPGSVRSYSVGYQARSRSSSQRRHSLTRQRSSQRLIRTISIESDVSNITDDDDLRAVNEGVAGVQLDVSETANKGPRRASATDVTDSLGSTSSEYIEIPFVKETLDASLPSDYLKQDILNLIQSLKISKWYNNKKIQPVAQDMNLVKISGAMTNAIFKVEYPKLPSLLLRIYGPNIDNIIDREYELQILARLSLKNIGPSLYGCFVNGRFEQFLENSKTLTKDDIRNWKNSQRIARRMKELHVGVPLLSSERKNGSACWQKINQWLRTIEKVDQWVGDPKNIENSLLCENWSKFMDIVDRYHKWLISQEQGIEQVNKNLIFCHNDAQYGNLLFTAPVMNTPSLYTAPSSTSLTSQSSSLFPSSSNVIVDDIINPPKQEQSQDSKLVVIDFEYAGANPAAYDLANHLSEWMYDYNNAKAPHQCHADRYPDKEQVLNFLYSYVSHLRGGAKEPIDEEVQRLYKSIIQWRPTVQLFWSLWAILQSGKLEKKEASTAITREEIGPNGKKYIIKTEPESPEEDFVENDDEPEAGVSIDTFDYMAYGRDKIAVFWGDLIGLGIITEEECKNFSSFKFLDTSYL
Experiment: In vitro kinetic assay of purified choline kinase with isoprenol or prenol (LC-MS/MS)
Type: biochemical
Conditions: as previously reported (Chatzivasileiou et al., 2018)
Experimental: Enzyme assays for screening of isopentenol kinase activity was performed as follows. The purified enzymes were added to the enzyme assay master mix for a final concentration of 2 mM ATP, 10 mM MgCl2, 50 mM NH4HCO3 pH 7.5, and 600 μM isoprenol or prenol. They were incubated overnight at 37° C. The reactions were stopped using 5 volumes of ice-cold acetonitrile and centrifuged to remove precipitated proteins using a plate adaptor at 3273×g for 15 min. The supernatant was transferred to a new microplate and frozen at −80° C. The liquid was removed by a 4.5 L lyophilizer (Labconco) and the samples were resuspended in an equal volume of water and centrifuged again prior to quantification using LC-MS/MS.
Kinetic enzyme assays were conducted using the standard assay conditions described above with the following changes. First, the linear range of the assay was determined over a 90 min period (FIG. 3). Initial velocity appeared linear over this period. Therefore, kinetic assays were quenched after 30 min. For assays at different temperatures, the standard reaction mixture was used while the temperature was varied using a water bath. […] Afterwards, reactions were performed in the standard reaction mixture with NH4HCO3 buffer was adjusted to the appropriate pH. For Michaelis-Menten kinetics, only the concentration of isoprenol or prenol was varied between 1.5-50 μM.

SMILES | specificity constant, kcat/Km [M⁻¹ s⁻¹]
CC(C)=CCO [Prenol, 3-methyl-2-buten-1-ol] | 1010
C=C(C)CCO [Isoprenol, 3-methyl-3-buten-1-ol] | 3230
